Reference: patent US10016515B2, “DMA, a bis-benzimidazole, confers radioprotection to the intestine via Akt/NFκB dual pathway activation” (Jawaharlal Nehru University, priority 2016, dated 2018)

System: HEK293 cells
Experiment: Uptake and efflux study of DMA by flow cytometry
Format: cell-based, human

COc1ccc(-c2nc3cc(-c4nc5cc(N6CCN(C)CC6)ccc5[nH]4)ccc3[nH]2)cc1OC [DMA, 5-(4-methylpiperazin-1-yl)-2-[2′-(3,4-dimethoxyphenyl)-5′-benzimidazolyl]benzimidazole]
Time to maximum DNA bound intensity of DMA (uptake) (HEK293, 50 μM DMA): 2 h
Relative DMA intensity (HEK293, 72 h after 2 h incubation with 50 μM DMA): ~14%
